According to paper PMC12812394:

Target: Pi65-HA (rice (Oryza sativa ssp. japonica cv. GY129))
Experiment: co-IP

- binding: binds
B1: OsAPx4-GFP (enzyme, UniProt Q6ZJJ1 1-291)
chain: MAAPVVDAEYLRQVDRARRHLRALISSKGCAPIMLRLAWHDAGTYDVNTKTGGANGSIRYEEEYTHGSNAGLKIAIDLLEPIKAKSPKITYADLYQLAGVVAVEVTGGPTVEFIPGRRDSSVCPREGRLPDAKKGALHLRDIFYRMGLSDKDIVALSGGHTLGRAHPERSGFEGAWTQEPLKFDNSYFLELLKGESEGLLKLPTDKALLEDPSFRRYVDLYARDEDTFFKDYAESHKKLSELGFTPRSSGPASTKSDLSTGAVLAQSAVGVAVAAAVVIVSYLYEASKKSK

No constants are given. Whether binding was seen depends on the method and setting. Binding seen in cells or lysates may run through a third protein. Binding can be weak; no strength is given. Where a sequence is shown, tags or fusion partners need not be part of it.
